The source of these data is the supplement of paper PMC8007513.

The list shows a part of the results. Single values are uncertain, as repeats are few or missing.

This assay concerns Saccharomyces cerevisiae BY4743. Put plainly: growth (OD600) relative to untreated control; higher = less growth inhibition. Particulars: compound concentration: 133 uM; 20 h. As to the method: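 NMCCC compounds (133 uM, no IPBC) tested alone against Saccharomyces cerevisiae BY4743 in YPD, 96-well plates, starting OD600 ~0.1. Growth was read as OD600 at 20 h and expressed as % of the untreated control. Single pass.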
In turn, `CCOc1cccc(OCC)c2c(C)[nH+]c(C)c1-2` registered a growth of 72.3%.

Consider `CC(=O)NC1C(=O)N(CCS(=O)(=O)c2ccccc2)c2ccc(F)cc21` (centres undefined), for which the growth worked out at 107%.

In turn, `Cc1cc(NS(=O)(=O)c2c(C)nn(C)c2Cl)ccc1N1CCCC1=O` came in with a growth of 108%. The same measure for `CN(C)S(=O)(=O)c1ccc2c(c1)N(CC(=O)N1CCCCCC1)CCS2`: 101%. `N#Cc1ccc(NC(=O)COCC(=O)NCc2ccco2)cc1` returned a growth of 86.9%.

`CSc1nnc(-c2cccnc2)n1CCO`: the growth was found to be 94.7%. Compound `Cc1ccc(N(CCC#N)C(=O)CSc2nnc3c(Cl)cc(Cl)cn23)cc1` displayed a growth of 100%. To `CCC(C(=O)N1CCOCC1)n1c(C(=O)OC)cc2sc(C)cc21` (centres undefined) belongs 110%; to `CC(C)C[C@H](NC(=O)N1CCc2ccccc21)C(=O)O`, 90.3%. In turn, `COc1cc(CNC(=O)c2ncoc2-c2cccs2)cc(OC)c1OC` came in with a growth of 102%. To `Cc1cc(C)c(NC(=O)CNC(=O)CCc2ccc(C3CC3C)o2)c(C)c1` (centres undefined) belongs 106%; to `CCCN(CCC)C(=O)CN1\N=C/C2=C(C)[N](CC3=CC=CC=C3)C(=C2C1=O)C`, 110%.

In turn, `COC(=O)c1c(C)[nH]c(C(=O)CN2CCN(c3nccs3)CC2)c1C` came in with a growth of 94.8%. The same measure for `CCN(CC)[S](=O)(=O)C1=CC(=CC=C1C)C/2=N/N(CC(=O)NC3=CC=C(C=C3)C(C)=O)C(=O)/C=C2`: 78.3%; for `CN(CCO)c1nc2c(c(=O)n(Cc3ccc(Cl)cc3)c(=O)n2C)n1C`: 110%. To `Cc1ccccc1Cn1cc(NS(=O)(=O)c2ccc(Br)s2)cn1` belongs 110%. In the case of `CCOC(=O)c1cc(S(=O)(=O)NC2CCN(Cc3ccccc3)CC2)cn1C`, the growth came to 75.7%. To `CCC1=CC=C(Cl)C(=C1NC(=O)C/2=N/N(C)C(=O)/C=C2)CC` belongs 99.9%; to `CCc1c(C)sc(NS(=O)(=O)c2ccc(NC(C)=O)cc2)c1C#N`, 103%; to `CC1(C)CC(NC(=O)CNC(=O)Cc2nnc(O)c3ccccc23)CC(C)(C)N1`, 108%. To `COC(=O)C1C\C(=N/O1)C2=C[N](C)N=C2C` (centres undefined) belongs 102%. The same measure for `CCOC(=O)c1c(-c2ccc(OC)cc2)csc1NC(=O)CN(C)CC(=O)N(C)C`: 106%; for `Cc1ccc2c(c1)C(=O)CCCS2(=O)=O`: 112%. `CCOC(=O)c1cc2c(OC)ccc(OC)c2n1CC(=O)c1ccccc1` had a growth of 90.5%. The same measure for `Cc1sc(NC(=O)c2cccc(NC(=O)C3CCCO3)c2)c(C#N)c1C` (centres undefined): 90.9%.

In turn, `CC(C)CCN1CCC(CNS(=O)(=O)c2ccc3c(c2)C(C)(C)C(=O)N3C)CC1` came in with a growth of 99.9%. As for `CCN(CC)C1=CC2=C(C=C1F)C(=O)\C(=C/N2C)[S](=O)(=O)C3=CC=C(C)C=C3`, the growth came to 97.9%. Regarding `COc1cccc(C(=O)Oc2c(S(=O)(=O)c3ccccc3)c(C)nn2C(C)(C)C)c1OC`, the growth amounted to 102%. The same measure for `CC(NC(=O)CSc1nc(O)c(C#N)c(-c2ccc(Cl)cc2)n1)c1ccccc1` (centres undefined): 116%. Compound `O=C(COC(=O)c1[nH]nc2ccccc12)NC(=O)NC1CCCCC1` yielded a growth of 90.5%. For the compound `CC(=O)c1ccc(NC(=O)c2nc3nc(C)cc(C(F)F)n3n2)cc1`, the growth worked out at 81.5%. `Cn1cc(S(=O)(=O)N2CCOCC2)cc1C(=O)NCc1ccc(C(F)(F)F)cc1` came in with a growth of 116%. `CCS(=O)(=O)N1CCc2cc(C(=O)COC(=O)c3cc(Cl)ccc3O)ccc21` yielded a growth of 84.7%. The same measure for `CC(=O)N1CCSc2ccc(S(=O)(=O)Nc3ccc(OC(F)(F)F)cc3)cc21`: 119%; for `CC(C)c1nccn1-c1ccc(NC(=O)c2ccc(N(C)C)cc2)cc1`: 108%. To `FC(F)(F)CNC(=O)C1=CC=CC=C1NC(=O)CN2C(=O)\C=C/N(CC3=CC=CC=C3)C2=O` belongs 106%; to `CN(C)CCSc1nnc2sc3ccccc3n12`, 103%; to `CCn1cnnc1CNC(=O)NCc1ccc(NC(=O)C(F)(F)F)cc1`, 105%. Take `O=S(=O)(NC1CCCCCC1)c1ccc(-c2ccno2)s1`: the growth amounted to 92.9%.
